# PubChem BioAssay (NCATS)
# The chains behind the UniProt entries cited, without tags or fusion partners. Where a name states a change or a piece, a line headed by the entry shows the natural chain unless it says otherwise.
# UniProt P03372, whole entry, looked up: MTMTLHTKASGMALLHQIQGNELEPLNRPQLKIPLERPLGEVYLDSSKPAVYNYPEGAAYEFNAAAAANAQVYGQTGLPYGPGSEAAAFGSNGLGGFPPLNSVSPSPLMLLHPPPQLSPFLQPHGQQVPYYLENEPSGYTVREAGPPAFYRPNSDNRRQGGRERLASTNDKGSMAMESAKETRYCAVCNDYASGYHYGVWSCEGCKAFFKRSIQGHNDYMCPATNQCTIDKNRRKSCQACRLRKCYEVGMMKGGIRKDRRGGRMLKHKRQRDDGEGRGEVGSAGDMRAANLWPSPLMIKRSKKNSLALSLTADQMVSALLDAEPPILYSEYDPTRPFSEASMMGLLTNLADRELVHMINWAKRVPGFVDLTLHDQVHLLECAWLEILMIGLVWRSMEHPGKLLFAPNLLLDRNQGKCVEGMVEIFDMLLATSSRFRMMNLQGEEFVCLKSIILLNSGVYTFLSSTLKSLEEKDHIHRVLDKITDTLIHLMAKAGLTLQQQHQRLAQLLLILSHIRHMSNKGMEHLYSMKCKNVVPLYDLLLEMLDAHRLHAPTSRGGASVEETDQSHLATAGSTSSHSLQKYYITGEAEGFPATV
# UniProt Q03181: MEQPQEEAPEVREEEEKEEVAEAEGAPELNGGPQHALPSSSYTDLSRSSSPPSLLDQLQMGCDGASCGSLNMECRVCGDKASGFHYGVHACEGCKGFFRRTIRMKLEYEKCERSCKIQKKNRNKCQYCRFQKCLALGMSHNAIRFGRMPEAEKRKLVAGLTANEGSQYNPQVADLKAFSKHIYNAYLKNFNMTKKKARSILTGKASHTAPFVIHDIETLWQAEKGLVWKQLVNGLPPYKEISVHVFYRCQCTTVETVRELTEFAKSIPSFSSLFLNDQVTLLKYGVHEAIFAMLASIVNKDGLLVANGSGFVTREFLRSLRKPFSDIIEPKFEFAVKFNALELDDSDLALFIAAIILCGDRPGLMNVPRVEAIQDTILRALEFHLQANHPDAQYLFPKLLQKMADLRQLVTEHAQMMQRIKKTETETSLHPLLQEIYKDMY
# UniProt P51449: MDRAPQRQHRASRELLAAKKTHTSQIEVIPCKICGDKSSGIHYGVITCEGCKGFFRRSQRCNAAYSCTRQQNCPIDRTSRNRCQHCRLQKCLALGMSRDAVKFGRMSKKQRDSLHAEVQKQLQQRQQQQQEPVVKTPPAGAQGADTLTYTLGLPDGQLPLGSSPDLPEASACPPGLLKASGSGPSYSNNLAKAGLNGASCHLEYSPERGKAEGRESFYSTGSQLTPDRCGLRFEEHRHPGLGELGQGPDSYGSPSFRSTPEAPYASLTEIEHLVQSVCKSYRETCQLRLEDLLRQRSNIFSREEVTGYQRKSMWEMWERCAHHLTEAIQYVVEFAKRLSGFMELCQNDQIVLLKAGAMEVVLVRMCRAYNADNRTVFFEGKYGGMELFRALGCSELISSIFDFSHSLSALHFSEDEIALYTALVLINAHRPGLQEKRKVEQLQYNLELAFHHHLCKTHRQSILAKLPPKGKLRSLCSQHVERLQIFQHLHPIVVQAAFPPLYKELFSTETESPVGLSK
# UniProt P19793: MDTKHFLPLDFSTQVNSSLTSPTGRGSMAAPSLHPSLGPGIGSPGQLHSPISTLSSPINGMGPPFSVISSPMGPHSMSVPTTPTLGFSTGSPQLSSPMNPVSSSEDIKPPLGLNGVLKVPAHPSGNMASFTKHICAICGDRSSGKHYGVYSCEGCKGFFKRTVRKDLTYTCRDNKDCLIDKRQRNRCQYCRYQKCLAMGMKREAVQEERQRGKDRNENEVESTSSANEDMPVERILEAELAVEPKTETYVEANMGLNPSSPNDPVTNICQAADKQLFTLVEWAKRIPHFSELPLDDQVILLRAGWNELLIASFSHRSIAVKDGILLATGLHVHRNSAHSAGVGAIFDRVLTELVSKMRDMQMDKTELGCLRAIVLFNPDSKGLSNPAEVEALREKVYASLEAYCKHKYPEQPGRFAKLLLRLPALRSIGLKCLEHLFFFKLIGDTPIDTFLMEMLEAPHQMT
# UniProt P10828: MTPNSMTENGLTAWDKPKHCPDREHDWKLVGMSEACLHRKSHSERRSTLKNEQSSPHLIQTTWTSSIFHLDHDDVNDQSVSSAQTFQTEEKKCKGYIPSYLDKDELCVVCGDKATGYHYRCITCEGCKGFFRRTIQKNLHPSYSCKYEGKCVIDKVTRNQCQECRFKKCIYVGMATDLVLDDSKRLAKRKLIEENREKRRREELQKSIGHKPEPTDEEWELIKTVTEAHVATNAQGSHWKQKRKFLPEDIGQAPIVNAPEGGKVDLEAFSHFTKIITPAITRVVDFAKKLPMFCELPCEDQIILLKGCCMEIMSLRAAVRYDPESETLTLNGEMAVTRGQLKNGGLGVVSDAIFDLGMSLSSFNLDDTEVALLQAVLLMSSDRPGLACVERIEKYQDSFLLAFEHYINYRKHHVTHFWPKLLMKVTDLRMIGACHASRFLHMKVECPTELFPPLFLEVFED
# UniProt P10275: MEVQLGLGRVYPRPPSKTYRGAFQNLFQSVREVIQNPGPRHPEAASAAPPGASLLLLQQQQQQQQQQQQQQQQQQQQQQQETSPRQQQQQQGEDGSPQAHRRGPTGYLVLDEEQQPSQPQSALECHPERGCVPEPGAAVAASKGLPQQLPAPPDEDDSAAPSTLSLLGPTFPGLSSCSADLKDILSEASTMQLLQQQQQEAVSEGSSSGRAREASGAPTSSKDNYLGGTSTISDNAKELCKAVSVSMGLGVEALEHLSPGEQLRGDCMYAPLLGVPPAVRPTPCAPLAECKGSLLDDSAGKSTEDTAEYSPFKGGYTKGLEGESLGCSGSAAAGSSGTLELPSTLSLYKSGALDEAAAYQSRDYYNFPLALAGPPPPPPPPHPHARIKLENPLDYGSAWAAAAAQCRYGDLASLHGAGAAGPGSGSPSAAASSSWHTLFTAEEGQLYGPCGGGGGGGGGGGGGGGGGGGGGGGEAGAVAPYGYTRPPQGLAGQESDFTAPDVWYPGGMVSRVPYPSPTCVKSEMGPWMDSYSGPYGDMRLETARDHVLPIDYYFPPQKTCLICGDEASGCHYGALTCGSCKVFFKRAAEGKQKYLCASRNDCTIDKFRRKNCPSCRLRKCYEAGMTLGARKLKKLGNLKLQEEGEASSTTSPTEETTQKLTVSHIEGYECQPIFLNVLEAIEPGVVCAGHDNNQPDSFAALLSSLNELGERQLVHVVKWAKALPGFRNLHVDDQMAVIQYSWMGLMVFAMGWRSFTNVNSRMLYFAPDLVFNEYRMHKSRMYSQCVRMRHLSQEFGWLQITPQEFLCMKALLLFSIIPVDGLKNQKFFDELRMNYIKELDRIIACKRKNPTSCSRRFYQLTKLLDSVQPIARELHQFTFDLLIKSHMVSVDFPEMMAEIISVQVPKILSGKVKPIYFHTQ
# The shares of active, inactive and inconclusive entries below differ from those in the screen. For some assays here: Potencies of inconclusive entries are doubtful fits and often do not repeat. For some assays here: A note “side channel” means that the fit belongs to a control or component signal, not to the main read-out. The source made the active and inactive calls. Unless noted, calls follow the shape of the dose curve; as a rule, active = well fitted curve in the direction sought with a large enough effect; inconclusive = small, poorly fitted or top-dose-only effect, or another doubt; inactive = no such curve, though single readings can be large; an effect the other way counts as inactive or inconclusive.
# Key:
# [1] = Cell Viability - LYMP1-002 - Assay at 40 hr (AID 994); settings: LYMP1-002 lymphoblastoid cell viability; at 92.2 µM (top of the series);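 also: 0% = DMSO only and full inhibition = 92 µM tetraoctylammonium bromide; nearly all actives have a fitted effect of over 60% in size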
# Method in brief: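 Cells are plated at 2500 per well and rested 5 hr at 37 C. Compounds are added and incubated 40 hr at 37 C. CellTiter-Glo reagent is added for 30 min at room temperature before luminescence is read.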
# [2] = molecular target: Estrogen receptor (Homo sapiens) (UniProt P03372); assay: qHTS assay for small molecule agonists of estrogen receptor alpha signaling (AID 588514; calls by dose curve; also: nearly all actives have a fitted effect of over 70% in size; also: potency is read from the fitted curve at half-maximal effect;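 as to activation: 0% = vehicle only and 100% = reference agonist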); settings: ER-alpha-UAS-bla HEK293, beta-lactamase ratio, 18 h; activation: at 76.8 µM (top of the series), percent of full estradiol response, vehicle zero unless noted
# Method in brief: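 Efficacy is expressed against 20 nM 17-beta-estradiol (100%) and DMSO basal (0%); EC50 from Hill equation. Assay: beta-lactamase reporter in ER-alpha-UAS-bla HEK 293 cells, 18 h compound incubation, CCF4 detection.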
# [3] = molecular target: Peroxisome proliferator-activated receptor delta (Homo sapiens) (UniProt Q03181); assay: qHTS assay for small molecule antagonists of peroxisome proliferator-activated receptor delta signaling (AID 588535; active = well fitted inhibition curve with a large enough effect in the signal ratio, with a control signal flat, not every such curve was filed as active; inconclusive = small, poorly fitted or top-dose-only effect, or effect the other way, or a change in a side signal; inactive = no such curve, though single readings can be large or run the other way; the % refers to the signal ratio; also: potency is read from the fitted curve at half-maximal effect); settings: HEK293T PPARd-UAS-bla, beta-lactamase FRET ratio, 18 h; activity change, negative = inhibition: at 76.7 µM (top of the series) unless noted
# Method in brief: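 Inhibition of PPAR-delta response element-driven beta-lactamase expression is measured in HEK293T cells exposed to a compound titration series for 18 hrs at 37 C. Half-maximal inhibition comes from Hill equation fitting.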
# [4] = molecular target: Peroxisome proliferator-activated receptor gamma (Homo sapiens) (UniProt P37231); assay: qHTS assay for small molecule antagonists of peroxisome proliferator-activated receptor gamma signaling (AID 588537; active = well fitted inhibition curve with a large enough effect in the signal ratio, with a control signal flat, not every such curve was filed as active; inconclusive = small, poorly fitted or top-dose-only effect, or effect the other way, or a change in a side signal; the % refers to the signal ratio; also: potency is read from the fitted curve at half-maximal effect;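 as to activity, negative = inhibition: reporter cells co-stimulated with 50 nM rosiglitazone agonist during compound treatment; % of control where 0% means no effect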); settings: HEK293 PPARg-UAS-bla, beta-lactamase ratio, antagonist mode; activity, negative = inhibition: at 76.8 µM (top of the series) unless noted
# Method in brief: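 Compounds are tested as concentration series for inhibition of rosiglitazone-driven (50 nM) reporter expression in GeneBLAzer PPAR-gamma-UAS-bla HEK293 cells. After 16 h at 37 C, CCF4 substrate is added for 2 h at room temperature and blue/green fluorescence is measured.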
# [5] = qHTS assay for small molecule disruptors of the mitochondrial membrane potential - 1 hr assay (AID 651754; calls by dose curve; also: potency is read from the fitted curve at half-maximal effect; nearly all actives have a fitted effect of over 35% in size); settings: ratio change, negative = depolarisation: at 92.2 µM (top of the series)
# Method in brief: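 Loss of mitochondrial potential shifts the cationic dye from red mitochondrial aggregates to green cytoplasmic monomers. Cells (HepG2) are treated with compound for 1 hr before a 30 min dye incubation at 37C.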
# [6] = qHTS assay for small molecule disruptors of the mitochondrial membrane potential - 5 hr assay (AID 651755; calls by dose curve; also: potency is read from the fitted curve at half-maximal effect; nearly all actives have a fitted effect of over 40% in size); settings: JC-1-type ratio dye; ratio change, negative = disruption: at 92.2 µM (top of the series)
# Method in brief: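 Seed HepG2 overnight, add compound, incubate 5 hr at 37C and 5% CO2, stain 30 min with Mito-MPS, then measure monomer (490/535 nm) and aggregate (540/590 nm) fluorescence.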
# [7] = qHTS assay to identify small molecules that stimulate interleukin-8 (IL-8) secretion (AID 651758; active = well fitted activation curve with a large enough effect in the signal ratio; inconclusive = small, poorly fitted or top-dose-only effect, or effect the other way, or a change in a side signal; the % refers to the signal ratio; also: 0% is about no effect); settings: HTRF ratio (665/615); activation: at 92.2 µM (top of the series)
# Method in brief: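 Quantitative HTS in THP-1 monocytic cells at 2000 cells per well, with 16 hrs compound incubation at 37 C. IL-8 in the medium was then quantified by HTRF immunoassay, read after 1-3 hrs at room temperature.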
# [8] = molecular target: Nuclear receptor ROR-gamma (Homo sapiens) (UniProt P51449); assay: qHTS assay for small molecule antagonists of the retinoid-related orphan receptor gamma (ROR-gamma) signaling pathway (AID 651802);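 also: CHO cells with doxycycline-induced ROR-gamma expression; % is scaled to controls: 0 for no effect and ±100 for the full control effect; nearly all actives have a fitted effect of over 60% in size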
# Method in brief: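 Steps: cells dispensed; compound or DMSO transferred by pin tool; doxycycline added to induce the ROR response element-driven luciferase; plates held 16hr at 37C; ONE-Glo added and luminescence measured.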
# [9] = molecular target: Glucocorticoid receptor (Homo sapiens) (UniProt P04150); assay: qHTS assay for small molecule antagonists of glucocorticoid receptor signaling (AID 588533; active = well fitted inhibition curve with a large enough effect in the signal ratio, with a control signal flat, not every such curve was filed as active; inconclusive = small, poorly fitted or top-dose-only effect, or effect the other way, or a change in a side signal; the % refers to the signal ratio;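 also: cells stimulated with 2 nM dexamethasone as agonist; % is scaled to controls: 0 for no effect and ±100 for the full control effect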); settings: HeLa MMTV-bla, GRE beta-lactamase ratio, antagonist mode, 18 h; activity change, negative = inhibition: at 76.8 µM (top of the series)
# [10] = molecular target: Vitamin D3 receptor (Homo sapiens) (UniProt P11473); assay: qHTS assay for small molecule antagonists of vitamin D receptor signaling (AID 588541; calls by dose curve; also: potency is read from the fitted curve at half-maximal effect); settings: HEK293T VDR-UAS-bla, beta-lactamase ratio, antagonist mode; activity change, negative = inhibition: at 76.7 µM (top of the series)
# [11] = molecular target: Retinoic acid receptor RXR-alpha (Homo sapiens) (UniProt P19793); assay: qHTS assay for small molecule antagonists of retinoid X receptor alpha signaling (AID 588546; active = well fitted inhibition curve with a large enough effect in the signal ratio, with a control signal flat, not every such curve was filed as active; inconclusive = small, poorly fitted or top-dose-only effect, or effect the other way, or a change in a side signal; inactive = no such curve, though single readings can be large or run the other way; the % refers to the signal ratio; also: potency is read from the fitted curve at half-maximal effect); settings: HEK293T RXRa-UAS-bla, beta-lactamase ratio, antagonist mode
# Method in brief: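 Beta-lactamase reporter inhibition, read as CCF4 fluorescence ratio (ex 405, em 460/530 nm) after 2 h at RT. HEK293T UAS-bla cells, 2500/well, were stimulated with 9-cis-RA at 500 or 100 nM final alongside test compound for 18 h at 37 C.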
# [12] = molecular target: Thyroid hormone receptor beta (Homo sapiens) (UniProt P10828); assay: qHTS assay for small molecule antagonists of thyroid hormone receptor beta signaling (AID 588547; active = well fitted inhibition curve with a large enough effect in the signal ratio, with a control signal flat, not every such curve was filed as active; inconclusive = small, poorly fitted or top-dose-only effect, or effect the other way, or a change in a side signal; the % refers to the signal ratio; also: potency is read from the fitted curve at half-maximal effect); settings: TR-UAS-bla HEK293, beta-lactamase ratio, antagonist mode, 18 h
# Method in brief: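 TR-UAS-bla GripTite HEK293 cells in 2% charcoal/dextran FBS medium were preincubated 4 h at 37 C, given compound (0.59 nM to 92 uM) plus 0.4 nM T3 (final) for 18 h, then CCF4 for 2 h at RT; Hill fit gave IC50.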
# [13] = qHTS assay for small molecule agonists of the antioxidant response element (ARE) signaling pathway (AID 651741; active = well fitted activation curve with a large enough effect in the signal ratio; inconclusive = small, poorly fitted or top-dose-only effect, or effect the other way, or a change in a side signal; the % refers to the signal ratio; also: potency is read from the fitted curve at half-maximal effect); settings: HepG2 ARE-bla reporter, beta-lactamase FRET ratio, 16 h; activation: at 96 µM (top of the series) unless noted
# Method in brief: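 Reporter: beta-lactamase under ARE, stably in HepG2. Exposure: 16 h, 37 C, compounds delivered in DMSO by pin tool after 5 h cell preincubation. Readout: FRET substrate fluorescence after 2 h at RT.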
# [14] = Cell Viability - LYMP2-015 (AID 971);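 also: cells exposed to compound for 24 h; 0% = DMSO only and full effect = 92 µM tetraoctylammonium bromide; nearly all actives have a fitted effect of over 55% in size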
# Method in brief: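 Cells are seeded at 2500 per well and incubated 5 hr at 37 C. Compounds are added across a concentration series for 24 hr at 37 C. CellTiter-Glo is added, and luminescence is read after 30 min at room temperature.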
# [15] = Cell Viability - LYMP2-021 (AID 974);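 also: compound exposure lasts 24 hours at 37 °C; % is scaled to controls: 0 for no effect and ±100 for the full control effect; nearly all actives have a fitted effect of over 55% in size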
# Method in brief: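 Loss of cellular ATP, measured with a luciferase-based CellTiter-Glo readout, serves as the toxicity signal in human lymphoblastoid cells treated for 24 hours at 37 C. Potency is reported as AC50 from a standard Hill model.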
# [16] = Cell Viability - LYMP2-012 (AID 982); settings: LYMP2-012 lymphoblastoid cell viability qHTS; activity change, negative = cytotoxicity: at 92.2 µM (top of the series);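 also: cellular ATP by luciferase luminescence where a drop means cytotoxicity; cells exposed to compound for one day before reading; 0% = DMSO only and full loss = 92 µM tetraoctylammonium bromide; nearly all actives have a fitted effect of over 55% in size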
# [17] = Cell Viability - LYMP2-026 (AID 989);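 also: cells exposed to compound for 24 h at 37 °C; % is scaled to controls: 0 for no effect and ±100 for the full control effect; nearly all actives have a fitted effect of over 50% in size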
# Method in brief: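 Cells are seeded at 2500 per well and held 5 hr at 37 C. Compounds are added in concentration series for 24 hr, then CellTiter-Glo reagent is applied and luminescence read.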
# [18] = molecular target: Androgen receptor (Homo sapiens) (UniProt P10275); assay: qHTS assay for small molecule agonists of androgen receptor signaling (AID 588515; active = well fitted curve in the direction sought with a large enough effect in the signal ratio, with a control signal flat; inconclusive = small, poorly fitted or top-dose-only effect, or effect the other way, or a change in a side signal; inactive = no such curve, though single readings can be large or run the other way; the % refers to the signal ratio; also: % is scaled to controls: 0 for no effect and ±100 for the full control effect); settings: AR-UAS-bla HEK293, beta-lactamase ratio, agonist 16 h; activation: active compounds read high
# Method in brief: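 Stimulation of an AR-responsive β-lactamase reporter in GripTite HEK293 cells was measured after 16 h compound exposure at 37 °C, via CCF4 fluorescence after 2 h RT. EC50 from Hill fits, normalized to R1881 at 30 nM.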
# [19] = molecular target: Retinoic acid receptor RXR-alpha (Homo sapiens) (UniProt P19793); assay: qHTS assay for small molecule agonists of retinoid X receptor alpha signaling (AID 588544; calls by dose curve;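 also: 0% = DMSO basal wells and 100% = reference agonist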); settings: HEK293T RXRa-UAS-bla, beta-lactamase reporter, 18 h; activation: at 76.7 µM (top of the series)
# [20] = MultiTox-Fluor Cytotoxicity Assay - LYMP1-001 - Live Cells (AID 947);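 also: 0% = DMSO only and full inhibition = tetraoctylammonium bromide control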
# [21] = MultiTox-Fluor Cytotoxicity Assay - LYMP1-002 - Live Cells (AID 955); settings: LYMP1-002 lymphoblastoid live-cell protease fluorescence viability; at 46.1 µM (top of the series); also: % is scaled to controls: 0 for no effect and ±100 for the full control effect
# Method in brief: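 Cells were seeded at 2500 per well and incubated 5 hr. Compounds were then added for 16 hr at 37 C, followed by MultiTox-Fluor reagent for 60 min at room temperature and fluorescence reading of viable-cell protease signal.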
# [22] = MultiTox-Fluor Cytotoxicity Assay - LYMP1-002 - Dead Cells (AID 960); settings: LYMP1-002 lymphoblastoid cells, dead-cell protease fluorescence; cytotoxicity (dead cells): at 46.1 µM (top of the series); also: potency is read from the fitted curve at half-maximal effect; nearly all actives have a fitted effect of over 60% in size
# Method in brief: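 Cells were plated, rested 5 hr, then treated with compound dilution series for 16 hr at 37 C. After adding substrate reagent and 60 min at room temperature, dead-cell protease fluorescence gave concentration-response curves fitted by the Hill equation.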
# [23] = Cell Viability - LYMP2-009 (AID 968); settings: LYMP2-009 lymphoblastoid cell viability; activity change, negative = viability loss: at 92.2 µM (top of the series);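 also: cells exposed to compound for 24 h at 37 °C; 0% = DMSO alone and the full-kill end = tetraoctylammonium bromide at 92 µM; nearly all actives have a fitted effect of over 55% in size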
# [24] = molecular target: Androgen receptor (Homo sapiens) (UniProt P10275); assay: qHTS assay for small molecule antagonists of androgen receptor signaling (AID 588516; active = well fitted curve in the direction sought with a large enough effect in the signal ratio, with a control signal flat, not every such curve was filed as active; inconclusive = small, poorly fitted or top-dose-only effect, or effect the other way, or a change in a side signal; inactive = no such curve, though single readings can be large or run the other way; the % refers to the signal ratio; also: % is scaled to controls: 0 for no effect and ±100 for the full control effect); settings: AR-UAS-bla HEK293, beta-lactamase ratio, antagonist mode, 16 h; activity change, negative = inhibition: at 76.8 µM (top of the series)
# Method in brief: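 Antagonist-mode qHTS: inhibition of R1881 (10 nM)-driven beta-lactamase expression in GripTite HEK 293 cells is measured after 16 h; values are Hill-derived IC50s normalized between R1881 and DMSO wells.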
# [25] = molecular target: Peroxisome proliferator-activated receptor gamma (Homo sapiens) (UniProt P37231); assay: qHTS assay for small molecule agonists of peroxisome proliferator-activated receptor gamma signaling (AID 588536; active = well fitted curve in the direction sought with a large enough effect in the signal ratio, with a control signal flat, not every such curve was filed as active; inconclusive = small, poorly fitted or top-dose-only effect, or effect the other way, or a change in a side signal; inactive = no such curve, though single readings can be large or run the other way; the % refers to the signal ratio; also: potency is read from the fitted curve at half-maximal effect); settings: HEK293 PPARg-UAS-bla, beta-lactamase ratio, 16 h; activation: at 76.7 µM (top of the series), percent of rosiglitazone response, DMSO as zero
# Method in brief: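 Cells were plated and held 6–6.5 h at 37 C, then compounds were added as a titration series. After a further 16 h, CCF4 dye was loaded for 2 h at room temperature and emission at 460/530 nm recorded.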
# [26] = qHTS assay for small molecule agonists of the antioxidant response element (ARE) signaling pathway measured by Nrf2-dependant transcriptional activity (AID 720636; active = well fitted curve in the direction sought with a large enough effect in the repeat runs; inconclusive = weak or mixed curves; inactive = no such curve, though single readings can be large; an effect the other way counts as inactive or inconclusive; also: potency is read from the fitted curve at half-maximal effect)
# Method in brief: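 We exposed ARE-luc HepG2 cells, seeded in assay medium with 1% dialyzed FBS and allowed 6 hr to adhere, to test compounds overnight (16 hr, 37 C) before measuring luciferase with ONE-Glo.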
# [27] = qHTS assay for small molecule activators of the p53 signaling pathway (AID 651743; active = well fitted activation curve with a large enough effect in the signal ratio, not every such curve was filed as active; inconclusive = small, poorly fitted or top-dose-only effect, or a change in a side signal; the % refers to the signal ratio; also: % of control where 0% means no effect); settings: HCT-116 p53RE-bla, beta-lactamase FRET ratio, 16 h; activation: active compounds read high
# Method in brief: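 Agonist-mode quantitative HTS in HCT-116 cells carrying a p53-response-element beta-lactamase reporter; 16 h compound treatment at 37 C, then FRET substrate loading for 2 h at room temperature and fluorescence read.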
smiles,measurement,setting,value
CC(=C/C=C/C(C)=C/C=C/C=C(C)/C=C/C=C(C)/C=C/C(=O)O)/C=C/C(=O)O,"viability change, negative = cytotoxic",[1],inactive: -6.38%
same,activation,[2],inconclusive: 51.3%
same,Potency,[3],inactive
same,Potency,[4],inactive
same,Potency,[5],"inconclusive: 42.2 µM [inhibitor, partial curve]"
same,Potency,[6],"inconclusive: 33.5 µM [inhibitor, partial curve]"
same,activation,[7],inconclusive: -0.0538%
same,Potency,[8],inactive
O=C(O)CN(CCCN(CC(=O)O)CC(=O)O)CC(=O)O,Potency,[2],active: 8.91 µM
same,"activity change, negative = inhibition",[9],inconclusive: 32%
same,Potency,[3],active: 14.1 µM
same,Potency,[4],"inconclusive: 6.31 µM [inhibitor, partial curve]"
same,Potency,[10],"inconclusive: 22.4 µM [inhibitor, full curve]"
same,Potency,[11],"inconclusive: 11.2 µM [inhibitor, full curve, poor fit]"
same,Potency,[12],"inconclusive: 11.2 µM [inhibitor, partial curve, poor fit]"
same,Potency,[13],"inconclusive: 8.63 µM [inhibitor, partial curve, poor fit]"
ClCCl,Potency,[14],inactive
same,Potency,[15],inactive
same,Potency,[16],inactive
same,Potency,[17],inactive
same,Potency,[2],inactive
same,activation,[18],inactive: 2.05%
same,"activity change, negative = inhibition",[9],inconclusive: 7.71%
same,"activity, negative = inhibition",[4],inconclusive: 8.48%
same,Potency,[19],inactive
same,activation,[7],inconclusive: 0.68%
Nc1ccc(F)cc1F,Potency,[20],inactive
same,"viability change, negative = cytotoxic",[21],inactive: 3.94%
same,Potency,[22],"inconclusive: 12.6 µM [cytotoxic, partial curve]"
same,Potency,[23],inactive
same,Potency,[2],inactive
same,activation,[18],inactive: 18.9%
same,"activity change, negative = inhibition",[24],inconclusive: -31.6%
same,Potency,[9],inactive
same,"activity, negative = inhibition",[4],inconclusive: 10.5%
same,Potency,[10],inactive
same,max response,[11],inactive: 16.2%
same,Potency,[7],inactive
same,Potency,[8],inactive
O=[N+]([O-])c1ccc2c(c1)Cc1ccccc1-2,Potency,[2],inactive
same,Potency,[9],inactive
same,Potency,[25],"inconclusive: 39.8 µM [rising, partial curve]"
same,Potency,[13],"inconclusive: 19.3 µM [activator, full curve, poor fit]"
same,Potency,[26],"inconclusive: 2.43 µM [activator, full curve, poor fit]"
C=C[Si](OCCOC)(OCCOC)OCCOC,Potency,[2],inactive
same,Potency,[9],inactive
same,"activity, negative = inhibition",[4],inconclusive: 11.1%
same,max response,[11],inactive: 2.22%
same,Potency,[12],"inconclusive: 0.0891 µM [cytotoxic, side channel, full curve, poor fit]"
same,activation,[27],inactive: -3.03%
